We go through two substances from patent US20150174207A1 (UNIVERSITY OF MIAMI, priority 2013, published 2015).

Data set [1] relates to U-87 MG cells. Description: Immunocytochemistry / differentiation in reduced serum-containing medium. The data set is classed as cell-based, human. The following applies: JI-34 1 μM, 0.1% FBS-containing medium, 2 d; vs. DMSO control. As to the method:
Cells were seeded onto coverslips in six-well plates (50,000 cells per well) in 10% FBS-containing growth medium. This medium was replaced with serum-free medium the following day for 24 h. Thereafter, GHRH agonist (JI-34, 1 μM) was added in medium supplemented with 0.1% FBS and remained for the consecutive 2 d. Control cells received vehicle (DMSO). At the end of the treatment, phase-contrast images of live cells were collected and cells were fixed in ice-cold acetone for 10 min, washed with PBS three times, and blocked with 2% goat serum in PBS for 30 min. GFAP (Abcam; 1:500 dilution) or nestin (BD Transduction Laboratories; 1:75 dilution) antibodies were added in PBS for 1 h. Anti-rabbit and anti-mouse secondary antibodies (Alexa Fluor 488; Jackson Immunoresearch) were also applied for 1 h. Coverslips were mounted in Vectashield mounting medium containing DAPI for nuclear staining (Vector Laboratories). Images were acquired on a Nikon Eclipse Ti fluorescence microscope (Nikon Instruments).

Data set [2] in a line: general procedure: Boc solid-phase peptide synthesis; Boc-Agm-SPA-MBHA resin (0.3 mmol/g) or Agm-sulfonyl-polystyrene (PS) resin (0.74 mmol/g); DIC; preformed HOBt esters for Boc-Asn-OH and Boc-Gln-OH. The following applies: whole synthesis.

“Also recorded” adds a separate entry of the source.

As for “[Dat^1, Orn^12, Abu^15, Orn^21, Nle^27, Asp^28, Agm^29]hGHRH(1-29)NH2 [JI-34]”, the “morphological changes (phase-contrast)” value in data set [1] is on record as “higher tendency toward outgrowth of projections; also recorded: more/longer astrocytic processes than cells in the control group”.

Consider “[N-Me-Tyr^1, Fpa5^6, Gln^8, Orn^12, Abu^15, Orn^21, Nle^27, Asp^28, Agm^29] hGHRH(1-29)NH2”, for which the “final HPLC purity” value in data set [2] (220 and 280 nm, scale of the general procedure 0.50 mmol) is >95%. In data set [2] (scale 0.50 mmol), this substance came in with a crude mass of 68 mg and an isolated mass of 18 mg.
